Experimental data taken from the supplement of paper PMC10849652.
This is one part of the list. Residues, ends and D or L forms follow the SMILES beside them. *: point of attachment. Cbz = O=C(OCc1ccccc1)*

The chains behind the UniProt entries cited, without tags or fusion partners. Where a name states a change or a piece, a line headed by the entry shows the natural chain unless it says otherwise.
UniProt Q9UJ41, whole entry, looked up: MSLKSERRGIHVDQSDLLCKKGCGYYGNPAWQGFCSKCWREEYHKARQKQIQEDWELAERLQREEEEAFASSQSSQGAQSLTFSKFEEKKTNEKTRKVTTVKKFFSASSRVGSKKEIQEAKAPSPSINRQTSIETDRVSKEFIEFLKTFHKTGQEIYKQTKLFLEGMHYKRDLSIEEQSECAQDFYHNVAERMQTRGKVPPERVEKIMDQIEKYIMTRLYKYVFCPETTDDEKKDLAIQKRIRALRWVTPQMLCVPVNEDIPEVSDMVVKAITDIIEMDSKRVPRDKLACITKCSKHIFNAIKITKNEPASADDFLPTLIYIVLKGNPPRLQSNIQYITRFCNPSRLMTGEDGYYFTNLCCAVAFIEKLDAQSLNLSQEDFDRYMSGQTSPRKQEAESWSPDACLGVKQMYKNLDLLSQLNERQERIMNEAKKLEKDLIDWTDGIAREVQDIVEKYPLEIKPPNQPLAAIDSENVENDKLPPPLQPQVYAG
UniProt Q15276: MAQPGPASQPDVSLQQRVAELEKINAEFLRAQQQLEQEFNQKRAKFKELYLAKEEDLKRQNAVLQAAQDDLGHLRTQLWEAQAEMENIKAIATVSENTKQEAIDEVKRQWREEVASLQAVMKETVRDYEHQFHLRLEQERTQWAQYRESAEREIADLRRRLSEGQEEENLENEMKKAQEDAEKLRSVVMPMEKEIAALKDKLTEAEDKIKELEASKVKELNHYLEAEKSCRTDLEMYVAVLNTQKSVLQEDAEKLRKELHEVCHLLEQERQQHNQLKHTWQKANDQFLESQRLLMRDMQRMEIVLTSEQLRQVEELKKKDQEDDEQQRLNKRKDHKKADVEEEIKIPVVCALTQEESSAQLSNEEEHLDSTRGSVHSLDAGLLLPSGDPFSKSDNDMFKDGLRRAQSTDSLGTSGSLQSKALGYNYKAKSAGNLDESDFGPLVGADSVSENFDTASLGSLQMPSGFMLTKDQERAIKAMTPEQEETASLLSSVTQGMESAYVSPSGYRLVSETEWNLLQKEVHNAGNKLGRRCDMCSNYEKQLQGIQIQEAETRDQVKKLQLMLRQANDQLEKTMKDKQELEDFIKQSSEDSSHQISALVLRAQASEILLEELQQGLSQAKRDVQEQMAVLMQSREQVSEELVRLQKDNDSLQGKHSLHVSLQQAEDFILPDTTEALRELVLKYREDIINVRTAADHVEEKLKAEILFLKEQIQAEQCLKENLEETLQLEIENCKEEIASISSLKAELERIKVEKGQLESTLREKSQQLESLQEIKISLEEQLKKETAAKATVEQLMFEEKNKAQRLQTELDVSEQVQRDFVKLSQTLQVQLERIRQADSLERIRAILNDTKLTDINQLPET
UniProt O43502: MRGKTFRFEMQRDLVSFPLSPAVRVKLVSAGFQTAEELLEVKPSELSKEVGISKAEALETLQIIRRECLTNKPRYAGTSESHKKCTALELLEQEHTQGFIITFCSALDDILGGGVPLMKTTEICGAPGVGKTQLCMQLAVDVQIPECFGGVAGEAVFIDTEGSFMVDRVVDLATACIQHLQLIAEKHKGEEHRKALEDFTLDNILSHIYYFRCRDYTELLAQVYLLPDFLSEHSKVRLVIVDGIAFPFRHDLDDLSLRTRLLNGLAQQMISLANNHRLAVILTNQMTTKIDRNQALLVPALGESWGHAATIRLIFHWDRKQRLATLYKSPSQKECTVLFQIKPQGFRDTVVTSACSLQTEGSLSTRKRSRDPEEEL
UniProt Q53S08: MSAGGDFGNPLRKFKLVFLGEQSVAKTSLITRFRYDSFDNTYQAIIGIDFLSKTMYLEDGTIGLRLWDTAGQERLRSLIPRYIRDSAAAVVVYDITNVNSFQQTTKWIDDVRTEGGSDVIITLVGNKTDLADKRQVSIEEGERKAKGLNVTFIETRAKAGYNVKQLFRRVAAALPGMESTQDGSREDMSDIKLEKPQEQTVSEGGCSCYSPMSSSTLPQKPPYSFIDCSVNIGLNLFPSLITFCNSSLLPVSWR
UniProt P98179: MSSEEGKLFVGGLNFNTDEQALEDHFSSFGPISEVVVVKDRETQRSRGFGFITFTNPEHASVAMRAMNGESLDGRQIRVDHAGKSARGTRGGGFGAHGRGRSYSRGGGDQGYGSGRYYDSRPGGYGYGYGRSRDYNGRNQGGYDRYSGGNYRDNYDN
UniProt Q99638: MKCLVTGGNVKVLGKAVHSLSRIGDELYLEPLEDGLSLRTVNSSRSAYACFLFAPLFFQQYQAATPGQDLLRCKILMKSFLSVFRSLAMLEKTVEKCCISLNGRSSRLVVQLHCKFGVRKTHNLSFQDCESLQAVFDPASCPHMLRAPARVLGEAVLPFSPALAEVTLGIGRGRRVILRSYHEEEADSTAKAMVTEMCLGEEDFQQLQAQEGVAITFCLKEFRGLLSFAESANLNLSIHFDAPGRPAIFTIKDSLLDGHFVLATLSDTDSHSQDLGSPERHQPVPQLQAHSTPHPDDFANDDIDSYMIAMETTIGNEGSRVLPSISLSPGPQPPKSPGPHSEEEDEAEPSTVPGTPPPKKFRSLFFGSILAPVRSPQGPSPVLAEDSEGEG
UniProt Q8WUD1: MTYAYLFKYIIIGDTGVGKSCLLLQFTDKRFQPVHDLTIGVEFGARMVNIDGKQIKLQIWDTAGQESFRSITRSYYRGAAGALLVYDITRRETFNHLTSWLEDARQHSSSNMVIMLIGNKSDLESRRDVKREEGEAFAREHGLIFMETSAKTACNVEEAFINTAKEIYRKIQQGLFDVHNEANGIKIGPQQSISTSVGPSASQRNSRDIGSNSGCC
UniProt P47224: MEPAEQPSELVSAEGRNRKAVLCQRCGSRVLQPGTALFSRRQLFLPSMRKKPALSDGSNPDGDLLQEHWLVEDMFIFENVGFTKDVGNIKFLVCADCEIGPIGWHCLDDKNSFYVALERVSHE
UniProt Q5HYI8: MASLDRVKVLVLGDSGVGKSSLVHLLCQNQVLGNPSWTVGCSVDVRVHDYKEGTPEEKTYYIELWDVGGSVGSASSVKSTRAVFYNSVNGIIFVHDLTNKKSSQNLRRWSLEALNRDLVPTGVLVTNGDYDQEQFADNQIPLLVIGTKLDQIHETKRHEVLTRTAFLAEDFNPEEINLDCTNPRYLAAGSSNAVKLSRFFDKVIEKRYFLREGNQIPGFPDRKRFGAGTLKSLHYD
UniProt P11234: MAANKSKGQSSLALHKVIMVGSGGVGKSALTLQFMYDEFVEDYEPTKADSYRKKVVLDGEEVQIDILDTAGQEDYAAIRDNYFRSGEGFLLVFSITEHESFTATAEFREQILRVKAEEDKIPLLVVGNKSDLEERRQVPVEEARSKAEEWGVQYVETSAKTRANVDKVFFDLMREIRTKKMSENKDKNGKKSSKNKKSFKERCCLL
UniProt P20336: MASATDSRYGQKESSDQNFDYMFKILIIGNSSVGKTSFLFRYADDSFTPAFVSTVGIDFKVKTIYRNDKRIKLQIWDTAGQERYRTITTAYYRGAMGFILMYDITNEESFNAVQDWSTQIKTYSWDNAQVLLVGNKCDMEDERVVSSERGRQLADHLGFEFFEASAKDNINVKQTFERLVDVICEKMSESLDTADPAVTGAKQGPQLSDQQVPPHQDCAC
UniProt P20339: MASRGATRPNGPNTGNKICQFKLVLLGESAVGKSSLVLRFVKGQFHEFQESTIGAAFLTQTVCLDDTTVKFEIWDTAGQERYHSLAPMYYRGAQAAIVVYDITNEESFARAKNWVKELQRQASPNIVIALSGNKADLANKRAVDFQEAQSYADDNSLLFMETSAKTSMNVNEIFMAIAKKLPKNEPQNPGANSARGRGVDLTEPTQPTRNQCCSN
UniProt P98175: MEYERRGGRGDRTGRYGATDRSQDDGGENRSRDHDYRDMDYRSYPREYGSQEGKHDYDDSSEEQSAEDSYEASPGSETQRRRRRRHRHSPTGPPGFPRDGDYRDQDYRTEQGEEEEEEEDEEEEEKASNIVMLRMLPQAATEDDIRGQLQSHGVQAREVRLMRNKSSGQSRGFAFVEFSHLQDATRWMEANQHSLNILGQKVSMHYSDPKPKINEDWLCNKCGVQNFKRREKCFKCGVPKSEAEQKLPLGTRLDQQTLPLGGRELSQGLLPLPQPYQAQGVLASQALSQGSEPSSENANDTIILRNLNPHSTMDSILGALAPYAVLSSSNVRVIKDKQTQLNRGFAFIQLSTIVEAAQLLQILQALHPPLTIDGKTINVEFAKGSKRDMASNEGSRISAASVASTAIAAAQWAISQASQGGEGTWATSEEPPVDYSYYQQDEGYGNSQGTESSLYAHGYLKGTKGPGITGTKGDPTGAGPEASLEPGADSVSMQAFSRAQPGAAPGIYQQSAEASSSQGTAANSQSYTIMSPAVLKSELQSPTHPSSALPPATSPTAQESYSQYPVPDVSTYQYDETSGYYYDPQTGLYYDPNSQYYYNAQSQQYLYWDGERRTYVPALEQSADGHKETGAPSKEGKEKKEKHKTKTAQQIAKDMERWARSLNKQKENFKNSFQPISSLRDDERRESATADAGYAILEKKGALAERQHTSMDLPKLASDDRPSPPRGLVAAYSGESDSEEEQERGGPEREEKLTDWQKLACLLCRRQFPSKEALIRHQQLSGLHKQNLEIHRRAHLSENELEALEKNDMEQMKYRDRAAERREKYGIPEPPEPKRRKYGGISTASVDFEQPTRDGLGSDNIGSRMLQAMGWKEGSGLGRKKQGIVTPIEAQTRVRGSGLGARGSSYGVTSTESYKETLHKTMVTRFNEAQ
UniProt Q9NS91, whole entry, looked up: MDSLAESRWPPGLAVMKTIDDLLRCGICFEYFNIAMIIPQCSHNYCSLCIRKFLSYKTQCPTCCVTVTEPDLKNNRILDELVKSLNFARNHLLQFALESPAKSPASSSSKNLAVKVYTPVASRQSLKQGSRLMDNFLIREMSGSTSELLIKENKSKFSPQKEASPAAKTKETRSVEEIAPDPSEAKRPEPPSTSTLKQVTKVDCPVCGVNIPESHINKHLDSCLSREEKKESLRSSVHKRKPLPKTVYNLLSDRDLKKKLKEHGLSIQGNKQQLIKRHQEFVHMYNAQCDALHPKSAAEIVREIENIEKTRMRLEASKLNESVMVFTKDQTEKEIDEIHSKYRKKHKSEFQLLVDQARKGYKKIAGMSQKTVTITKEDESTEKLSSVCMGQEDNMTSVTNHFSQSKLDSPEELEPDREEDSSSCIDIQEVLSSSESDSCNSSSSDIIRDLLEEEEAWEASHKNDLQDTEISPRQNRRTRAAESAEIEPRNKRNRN
UniProt Q16576, whole entry, looked up: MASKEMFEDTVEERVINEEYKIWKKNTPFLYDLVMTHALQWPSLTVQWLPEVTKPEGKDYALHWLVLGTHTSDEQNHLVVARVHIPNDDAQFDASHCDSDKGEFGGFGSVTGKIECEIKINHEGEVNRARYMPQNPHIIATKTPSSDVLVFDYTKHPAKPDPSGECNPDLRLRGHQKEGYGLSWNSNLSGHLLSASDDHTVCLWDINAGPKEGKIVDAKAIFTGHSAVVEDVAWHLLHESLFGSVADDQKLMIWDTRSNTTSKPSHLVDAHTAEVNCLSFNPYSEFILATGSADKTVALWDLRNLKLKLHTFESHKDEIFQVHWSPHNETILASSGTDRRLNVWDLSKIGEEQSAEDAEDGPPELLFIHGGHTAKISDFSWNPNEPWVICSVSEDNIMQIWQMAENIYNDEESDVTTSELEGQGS

Key:
Test in all cases: log2 fold change, soluble protein after heating vs DMSO (PISA); higher = thermal stabilisation; K562 cells, 10 uM, 30 min; active = over 0.2 and 3.5 SD of the protein, either way, in both replicates (recomputed)
erlotinib = compound: C#Cc1cccc(Nc2ncnc3cc(OCCOC)c(OCCOC)cc23)c1 [erlotinib]
How it was run: (§1)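 Quantification of soluble protein used TMTpro 16plex LC-MS/MS, with channel sums equalised. Samples were the supernatant after 21,000xg for 90 min of pooled aliquots from K562 cells (2×10^6 cells/mL) treated with 10 μM compound for 30 min, heated for 3 min over 48°C-58°C, and extracted in PBS with 0.5% NP-40 at 4°C. Values, from duplicates, describe thermal stability against control samples on a log2 fold-change scale.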

[1] = compound: C/C(=N\NC(=O)C1=CC(=CC=C1)S(=O)(=O)N2CCOCC2)/C3=C(C=CC(=C3)Cl)O
How it was run: as §1

[2] = compound: C1=CC(=C(C=C1Cl)C2=NC3=NC=CN=C3C(=N2)NC4=CC=NC=C4)F
How it was run: as §1

[3] = compound: C1=CC(=CC=C1C2=NC3=C(N2)C=C(C=C3)C(=O)N)OC4=CC=C(C=C4)Cl
How it was run: as §1

[4] = compound: C1=CC2=C(C=CC(=C2)/C=C\3/C(=O)NC(=NCC4=CC=CS4)S3)N=C1
How it was run: as §1

[5] = compound: C1=CC2=NC=CN=C2C=C1/C=C/3\C(=O)NC(=O)S3
How it was run: as §1

[6] = compound: C1=CC=C(C=C1)C2=NC(=C(N2)C3=CC=NC=C3)C4=CC(=C(C=C4)Cl)O
How it was run: as §1

[7] = compound: C1=CC=C2C(=C1)C3=NNC4=CC=CC(=C43)C2=O
How it was run: as §1

[8] = compound: C1CCN(C1)C(=O)NC2=CC=CC(=C2)NC3=NC=C(C(=N3)NCCC4=CN=CN4)Br
How it was run: as §1

[9] = compound: C1CN(CCC1(CC2=CC=C(C=C2)Cl)N)C3=NC=NC4=C3C=CN4
How it was run: as §1

IRAK-1-4 Inhibitor I = compound: C1COCCN1CCN2C3=CC=CC=C3N=C2NC(=O)C4=CC(=CC=C4)[N+](=O)[O-] [IRAK-1-4 Inhibitor I]
How it was run: as §1

ibrutinib = compound: C=CC(=O)N1CCC[C@@H](n2nc(-c3ccc(Oc4ccccc4)cc3)c3c(N)ncnc32)C1 [ibrutinib]
How it was run: as §1

[10] = compound: CC(=O)c1cnc2ccc(-c3cc(Cl)c(O)c(Cl)c3)nc2c1N[C@H]1CC[C@H](CN(C)C)CC1
How it was run: as §1

ralimetinib = compound: CC(C)(C)Cn1c(N)nc2ccc(-c3[nH]c(C(C)(C)C)nc3-c3ccc(F)cc3)nc21 [ralimetinib]
How it was run: as §1

[11] = compound: CC(C)(O)CC(=O)NCCn1ccc2ncnc(Nc3ccc(Oc4cccc(C(F)(F)F)c4)c(Cl)c3)c21
How it was run: as §1

[12] = compound: CC(C)C1=C2N=C(C=C(N2N=C1)NCC3=CC=CC=C3)NCCCCCCN
How it was run: as §1

[13] = compound: CC(C)C[C@@H](C=O)NC(=O)[C@H](CC(C)C)NC(=O)[C@H](CC(C)C)NC(=O)OCc1ccccc1
How it was run: as §1

pinometostat = compound: CC(C)N(C[C@H]1O[C@@H](n2cnc3c(N)ncnc32)[C@H](O)[C@@H]1O)[C@H]1C[C@@H](CCc2nc3cc(C(C)(C)C)ccc3[nH]2)C1 [pinometostat]
How it was run: as §1

[14] = compound: CC1=C(C(CC(=O)N1)C2=CC=C(C=C2)C(F)(F)F)C(=O)NC3=C(C=C4C(=C3)C=NN4)F
How it was run: as §1

[15] = compound: CC1=C(C2=C(C=C1)C(=O)C3=CC=CC=C3N2CCCN)C
How it was run: as §1

Measured: log2 fold change

RABGEF1 isoform 3 (UniProt Q9UJ41)
inactive: erlotinib -0.027 | [1] -0.006 | [2] -0.009 | [3] 0.01 | [4] 0.012 | [5] 0.023 | [6] -0.034 | [7] -0.027 | [8] -0.035 | [9] -0.029 | IRAK-1-4 Inhibitor I 0 | ibrutinib -0.028 | [10] -0.084 | ralimetinib -0.066 | [11] -0.025 | [12] 0.002 | [13] 0.041 | pinometostat 0 | [14] 0.005 | [15] 0.011

RABEP1 (UniProt Q15276)
inactive: erlotinib 0.079 | [1] -0.037 | [2] 0.004 | [3] -0.015 | [4] 0.064 | [5] -0.016 | [6] 0.034 | [7] -0.018 | [8] -0.025 | [9] 0.013 | IRAK-1-4 Inhibitor I 0.04 | ibrutinib -0.018 | [10] 0.02 | ralimetinib 0.079 | [11] -0.02 | [12] 0.004 | [13] -0.013 | pinometostat -0.001 | [14] -0.068 | [15] 0.027

RAD51C (UniProt O43502)
inactive: erlotinib 0.034 | [1] 0.013 | [2] 0.099 | [3] 0.009 | [4] 0.06 | [5] 0 | [6] 0.017 | [7] 0.013 | [8] -0.007 | [9] 0.109 | IRAK-1-4 Inhibitor I 0.024 | ibrutinib -0.05 | [10] 0.018 | ralimetinib 0.028 | [11] -0.038 | [12] 0.018 | [13] 0.02 | pinometostat 0.014 | [14] -0.004 | [15] -0.004

RAB6D (UniProt Q53S08)
inactive: erlotinib 0.121 | [1] -0.017 | [2] 0 | [3] 0.001 | [4] 0.026 | [5] 0.037 | [6] -0.005 | [7] 0.051 | [8] -0.065 | [9] 0.202 | IRAK-1-4 Inhibitor I 0.044 | ibrutinib 0.001 | [10] 0.001 | ralimetinib 0.04 | [11] 0.051 | [12] 0.085 | [13] 0.006 | pinometostat -0.041 | [14] 0.023 | [15] 0.018

Reprinted at random: 2 records from the list, in no set order.
RABGEF1 isoform 3 (UniProt Q9UJ41)
inactive: erlotinib -0.027 | [1] -0.006 | [2] -0.009 | [3] 0.01 | [4] 0.012 | [5] 0.023 | [6] -0.034 | [7] -0.027 | [8] -0.035 | [9] -0.029 | IRAK-1-4 Inhibitor I 0 | ibrutinib -0.028 | [10] -0.084 | ralimetinib -0.066 | [11] -0.025 | [12] 0.002 | [13] 0.041 | pinometostat 0 | [14] 0.005 | [15] 0.011

RABEP1 (UniProt Q15276)
inactive: erlotinib 0.079 | [1] -0.037 | [2] 0.004 | [3] -0.015 | [4] 0.064 | [5] -0.016 | [6] 0.034 | [7] -0.018 | [8] -0.025 | [9] 0.013 | IRAK-1-4 Inhibitor I 0.04 | ibrutinib -0.018 | [10] 0.02 | ralimetinib 0.079 | [11] -0.02 | [12] 0.004 | [13] -0.013 | pinometostat -0.001 | [14] -0.068 | [15] 0.027

(list continues)

RBM3 (UniProt P98179)
inactive: erlotinib -0.092 | [1] -0.137 | [2] -0.26 | [3] 0.037 | [4] -0.14 | [5] 0.003 | [6] -0.076 | [7] 0.029 | [8] -0.007 | [9] -0.128 | IRAK-1-4 Inhibitor I -0.06 | ibrutinib 0.081 | [10] 0.017 | ralimetinib 0.066 | [11] 0.086 | [12] 0.174 | [13] 0.281 | pinometostat 0.184 | [14] 0.01 | [15] -0.04

RAD9A (UniProt Q99638)
inactive: erlotinib 0.018 | [1] 0.1 | [2] 0.037 | [3] 0.008 | [4] -0.006 | [5] -0.008 | [6] 0.06 | [7] -0.025 | [8] -0.022 | [9] 0.047 | IRAK-1-4 Inhibitor I 0.008 | ibrutinib 0.013 | [10] 0.037 | ralimetinib 0.088 | [11] -0.033 | [12] 0.073 | [13] -0.067 | pinometostat -0.062 | [14] -0.016 | [15] 0.024

RAB2B (UniProt Q8WUD1)
inactive: erlotinib -0.086 | [1] 0.012 | [2] 0.072 | [3] 0.034 | [4] -0.015 | [5] 0.022 | [6] -0.022 | [7] -0.015 | [8] -0.04 | [9] 0.03 | IRAK-1-4 Inhibitor I 0.032 | ibrutinib 0.007 | [10] 0.04 | ralimetinib 0.029 | [11] -0.004 | [12] 0.028 | [13] -0.036 | pinometostat -0.035 | [14] -0.031 | [15] 0

RABIF (UniProt P47224)
inactive: erlotinib 0.034 | [1] 0.081 | [2] 0.011 | [3] -0.034 | [4] -0.076 | [5] 0.007 | [6] 0 | [7] -0.049 | [8] 0.002 | [9] 0.057 | IRAK-1-4 Inhibitor I 0.088 | ibrutinib 0.042 | [10] 0.026 | ralimetinib 0.013 | [11] 0.048 | [12] 0.154 | [13] -0.036 | pinometostat 0 | [14] 0.038 | [15] -0.024

RAB12, A0A3B3ITT1
inactive: erlotinib 0.01 | [1] 0.071 | [2] 0.041 | [3] -0.028 | [4] 0.02 | [5] 0.007 | [6] 0.092 | [7] -0.033 | [8] -0.036 | [9] 0.04 | IRAK-1-4 Inhibitor I 0.004 | ibrutinib -0.013 | [10] -0.003 | ralimetinib 0.034 | [11] 0.023 | [12] 0.02 | [13] -0.074 | pinometostat -0.035 | [14] 0.015 | [15] 0.043

RABL3 (UniProt Q5HYI8)
inactive: erlotinib 0.023 | [1] 0.054 | [2] 0.049 | [3] 0.018 | [4] 0.04 | [5] 0.03 | [6] -0.037 | [7] -0.033 | [8] -0.012 | [9] 0.034 | IRAK-1-4 Inhibitor I 0.027 | ibrutinib -0.012 | [10] -0.038 | ralimetinib -0.044 | [11] -0.062 | [12] -0.122 | [13] 0.019 | pinometostat -0.024 | [14] -0.043 | [15] 0.024

RALB isoform 2 (UniProt P11234)
inactive: erlotinib 0.021 | [1] 0.034 | [2] 0.015 | [3] -0.052 | [4] 0.01 | [5] 0.021 | [6] -0.025 | [7] -0.065 | [8] -0.042 | [9] 0.02 | IRAK-1-4 Inhibitor I 0.017 | ibrutinib 0.028 | [10] -0.04 | ralimetinib -0.074 | [11] 0.039 | [12] 0.078 | [13] -0.016 | pinometostat -0.082 | [14] -0.008 | [15] 0.113

RAB3A (UniProt P20336)
inactive: erlotinib -0.018 | [1] 0 | [2] 0.15 | [3] 0.023 | [4] -0.028 | [5] 0 | [6] -0.03 | [7] -0.004 | [8] 0.027 | [9] -0.013 | IRAK-1-4 Inhibitor I -0.004 | ibrutinib 0.001 | [10] -0.043 | ralimetinib -0.127 | [11] -0.145 | [12] 0.111 | [13] -0.089 | pinometostat 0 | [14] -0.03 | [15] 0.014

RAB5A (UniProt P20339)
inactive: erlotinib -0.013 | [1] 0.105 | [2] 0.071 | [3] 0.06 | [4] -0.126 | [5] 0.023 | [6] -0.015 | [7] 0.038 | [8] -0.004 | [9] 0.168 | IRAK-1-4 Inhibitor I 0.008 | ibrutinib 0.023 | [10] 0.028 | ralimetinib 0.024 | [11] -0.077 | [12] 0.015 | [13] -0.051 | pinometostat -0.037 | [14] -0.023 | [15] 0.078

RBM10 isoform 5 (UniProt P98175)
inactive: erlotinib -0.043 | [1] -0.003 | [2] -0.144 | [3] 0.025 | [4] -0.069 | [5] 0.091 | [6] 0.002 | [7] -0.001 | [8] -0.062 | [9] -0.039 | IRAK-1-4 Inhibitor I -0.018 | ibrutinib -0.041 | [10] -0.09 | ralimetinib 0.01 | [11] 0.052 | [12] 0.023 | [13] 0.103 | pinometostat 0.033 | [14] -0.122 | [15] 0.083

RAD18 (UniProt Q9NS91)
inactive: erlotinib 0.186 | [1] 0.157 | [2] 0.123 | [3] -0.069 | [4] 0.048 | [5] 0.086 | [6] 0.019 | [7] 0.007 | [8] -0.096 | [9] -0.056 | IRAK-1-4 Inhibitor I -0.067 | ibrutinib -0.116 | [10] -0.099 | ralimetinib -0.028 | [11] -0.133 | [12] -0.11 | [13] -0.003 | pinometostat -0.086 | [14] 0.081 | [15] -0.331

RBBP7 isoform 2 (UniProt Q16576)
inactive: erlotinib -0.027 | [1] 0.049 | [2] -0.012 | [3] -0.005 | [4] -0.006 | [5] -0.019 | [6] -0.02 | [7] 0.006 | [8] 0.026 | [9] -0.004 | IRAK-1-4 Inhibitor I 0.022 | ibrutinib -0.002 | [10] -0.022 | ralimetinib -0.094 | [11] 0.058 | [12] 0.031 | [13] -0.058 | pinometostat -0.035 | [14] -0.044 | [15] -0.05
